According to PubChem BioAssay (EPA / NIEHS):
The shares of active, inactive and inconclusive entries below differ from those in the screen. A potency beside an inconclusive call is a rough fit, not a confirmed value. Activity calls are given as the source filed them. The calls were made as follows: active = hit-call score of the fitted dose curve at least 0.9, where 1 is the maximum; inconclusive = response in the unintended direction; inactive = score below 0.9.

Test: Tanguay_ZF_120hpf_NC_legacy: (Legacy) Oregon State University Tanguay Lab 120 Hour Post-fertilization zebrafish Assay for Notochord and Tail Malformation (AID 2283656)
Outline: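 Binary notochord-distortion calls, made by brightfield inspection, form the read-out; activity is fitted in the positive direction against DMSO. Exposure ran statically from 6 to 120 hpf at 28C with 0.64% DMSO.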

Row | SMILES | AC50 | outcome
1 | CCOC(=O)COc1ccc2c(c1)CC(NCC(O)c1cccc(Cl)c1)CC2 (stereo unspecified) | inconclusive: 2.82 µM | 
2 | O=C(O)CN(CC(=O)O)CC(=O)O |  | inactive
3 | CC(=O)NC1(c2cccc(F)c2)CCN(CC[C@@]2(c3ccc(Cl)c(Cl)c3)CN(c3ccccc3)C(=O)CO2)CC1 |  | inactive
4 | CC1=C(C)S(=O)(=O)CCS1(=O)=O | inconclusive: 112 µM | 
5 | Cc1ccc(S(=O)(=O)O)cc1C |  | inactive
6 | CCN(Cc1cccc(S(=O)(=O)O)c1)c1ccc(C(=C2C=CC(=[N+](CC)Cc3cccc(S(=O)(=O)O)c3)C=C2)c2ccccc2S(=O)(=O)[O-])cc1 | inconclusive: 10.9 µM | 
7 | CC[C@H](C)[C@@H](C(=O)O)n1sc2ccccc2c1=O |  | inactive
8 | C[C@@H]1C[C@H]2[C@@H]3CCC4=CC(=O)C=C[C@]4(C)[C@@]3(F)[C@@H](O)C[C@]2(C)[C@@]1(O)C(=O)COP(=O)(O)O |  | inactive
9 | CCn1nc(Cc2ccccc2)cc1C1CCN(C[C@H]2C[C@H](N(C)[C@@H](C(=O)O)C(C)C)C[C@@H]2c2cccc(F)c2)CC1 |  | inactive
10 | Cc1ccc(C(C)C)cc1 |  | inactive
11 | COCC(C)O (stereo unspecified) | inconclusive: 5.97 µM | 
